Binding data for 2 molecules are collected here from patent US20170290876A1.

Amino acid sequences for entries named in this document (tags omitted). A change or cut given only in a name is not applied to a line headed by its entry.
UniProt P15692: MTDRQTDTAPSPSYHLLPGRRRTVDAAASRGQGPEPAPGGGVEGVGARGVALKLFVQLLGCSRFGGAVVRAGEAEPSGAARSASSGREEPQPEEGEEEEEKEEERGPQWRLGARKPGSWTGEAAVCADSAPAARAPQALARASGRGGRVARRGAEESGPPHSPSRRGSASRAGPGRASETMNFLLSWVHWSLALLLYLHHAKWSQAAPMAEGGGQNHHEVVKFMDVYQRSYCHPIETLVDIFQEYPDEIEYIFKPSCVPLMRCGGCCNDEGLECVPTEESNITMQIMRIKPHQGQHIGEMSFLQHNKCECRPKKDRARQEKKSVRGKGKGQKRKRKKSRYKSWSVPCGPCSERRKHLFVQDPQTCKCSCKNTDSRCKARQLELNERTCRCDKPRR

For this assay, the target named is human VEGF (human) (UniProt P15692). The assay is described as follows: Biacore SPR. (In general: In SPR one partner is held on a chip, and binding of the other changes the refractive index at the surface.)

These are yes or no findings as the source states them, for the method shown. Some results given as binding are weak or reduced against the parent protein; the word gives no strength.

B1: HC4 (Fab, V domains shown)
VH: EVQLVESGGGLVQPGGSLRLSCTASGFSLTNYYYMTWVRQAPGKGLEWVGFIDPQNDPYYATWAKGRFTISRDNSKNTLYLQMNSLRAEDTAVYYCAGGNHNSGWGLNIWGQGTLVTVSS
VL: EIVMTQSPSTLSASVGDRVIITCQASEIIHSWLAWYQQKPGKAPKLLIYLASTLASGVPSRFSGSGSGAEFTLTISSLQPDDFATYYCQNVYLASTNGANFGQGTKLTVLK
On to B1, for which the binding entry is on record as “binds”.

B2: HC4T (Fab, V domains shown)
VH: B1 VH
VL: B1 VL
Take B2: the binding entry is listed as “binds”.
